# Measured values as given in PubChem BioAssay AID1487 (National Center for Advancing Translational Sciences (NCATS), 2009).
# Where “and” joins values, the source holds several entries; their conditions need not be identical. Equal values may be shown once. This is one part of the list. These are further read-outs of the screen, such as a control signal, another cell line or another target. No call is given for them. Most of these compounds were active or inconclusive in the main read-out, so they are no random draw. Words in brackets tell the shape of the fitted curve; partial curves, single points and poor fits give uncertain potencies.
# Experiment: qHTS Assay for Modulators of Lamin A Splicing
# Details: HeLa LMNA splicing GFP/RFP minigene ratio, 48 h
# In short: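 S3 HeLa stable clones carrying a lamin A-EGFP splicing minigene plus DsRed2 were seeded at 600 cells/well in Opti-MEM with 2% FBS, pin-dosed and incubated 48 h at 37°C. Acumen cytometry (488 nm) gave the GFP/RFP total-intensity ratio.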
# [1] = measured here: RFP viability control channel
# [2] = measured here: GFP splicing reporter channel
Compound,AC50 [1],AC50 [2]
O=C(Cn1cnc2c(cnn2-c2ccc(F)cc2)c1=O)N1CCN(c2ccccc2F)CC1,"2.51 µM [rising, partial curve, poor fit]",
CCOc1ccc(C(=O)Nc2ccccc2OCc2cc(=O)n3ccccc3n2)cc1,,"0.631 µM [falling, full curve, poor fit]"
Cc1cc(C(=O)Nc2cccc(F)c2)c2c(C)nn(-c3cccc(Cl)c3C)c2n1,"25.1 µM [falling, single point]","0.00447 µM [falling, full curve, poor fit]"
Cn1c(-[n+]2c(-c3ccccc3)cc(-c3ccccc3)cc2-c2ccccc2)nc2c([N+](=O)[O-])cccc21,"15.8 µM [rising, partial curve]","11.2 µM [rising, partial curve]"
CCn1c(CCNC(=O)c2ccc(Cl)c(Cl)c2)nnc1SCCOc1ccc(OC)cc1,"10 µM [rising, partial curve]","7.94 µM [rising, partial curve]"
CCc1ccc(-c2cn3c(n2)SCC3)cc1,"14.1 µM [falling, single point]",
CCN(CC)S(=O)(=O)c1ccc(NC(=S)NC(=O)CC(C)C)cc1,,"35.5 µM [rising, single point]"
NC(=O)CSc1nc2scc(-c3ccc(Cl)cc3)c2c(=O)n1Cc1ccccc1,"20 µM [rising, single point]",
CCCCC(O)(CCCC)C(=O)NN(C(=O)CCl)c1ccccc1,,"35.5 µM [falling, single point]"
CCOC(=O)N1CCC(=C2c3ccc(Cl)cc3CCc3cccnc32)CC1,"11.2 µM [rising, partial curve, poor fit] and 22.4 µM [falling, single point] and 31.6 µM [rising, single point]","12.6 µM [falling, partial curve] and 35.5 µM [falling, single point] and 35.5 µM [rising, single point]"
CC(C)Oc1cccc(C(=O)NC(=S)Nc2ccccc2)c1,"35.5 µM [rising, single point]","11.2 µM [rising, partial curve, poor fit]"
O=C(COC(=O)c1ccccc1C(=O)N1CCN(c2ccccc2)CC1)Nc1ccc(F)cc1,"11.2 µM [rising, partial curve]",
Cc1ccc(-c2c[n+](CC(=O)Nc3nc(-c4ccc(F)cc4)cs3)c3n2CCC3)cc1,"12.6 µM [rising, partial curve]","10 µM [rising, partial curve, poor fit]"
Cc1nc2ncnn2c(N2CCN(C(c3ccccc3)c3ccccc3)CC2)c1C,"31.6 µM [rising, single point]","12.6 µM [rising, single point]"
CCN(CC)CC(=O)Nc1cc(N(C)C)nc2ccccc12,,"3.98 µM [rising, single point]"
CCNC(=S)NNC(=O)c1ccccn1,"14.1 µM [rising, single point]","15.8 µM [rising, single point]"
CCCS(=O)(=O)N1CC(=O)N(c2ccccc2C)C(C)(C(=O)NC2CCCCC2)C1 (configuration not stated),,"10 µM [rising, single point]"
CCOc1ccc(C(=O)/C=C/c2ccc(OC)c(OC)c2)cc1,"15.8 µM [falling, single point]",
Cc1ccc(C(=O)Nc2nccs2)cc1S(=O)(=O)N1CCCCC1,"11.2 µM [rising, partial curve]","6.31 µM [rising, partial curve, poor fit]"

Compound,AC50 [1],AC50 [2]
CC(C)CNC(=O)c1cccc(NC(=O)CCc2ccccc2)c1,"0.158 µM [falling, full curve, poor fit]","0.1 µM [falling, full curve, poor fit]"
CCOC(=O)N1CCC(Nc2c(Nc3cccc(CC)c3)c(=O)c2=O)CC1,"15.8 µM [rising, partial curve]","14.1 µM [rising, single point]"
COc1ccc(-c2csc(-n3ncc(-c4cccs4)c3N)n2)cc1,"25.1 µM [falling, single point]",
O=C(COC(=O)CC1c2ccccc2CCN1S(=O)(=O)c1ccc(F)cc1)Nc1ccccc1 (configuration not stated),,"6.31 µM [falling, single point]"
C/C(=N\NC(=O)c1ccccc1)c1nc2ccccc2n1C,"17.8 µM [rising, single point]","11.2 µM [rising, partial curve]"
COC(=O)c1ccc(OC)c(CSc2nnc(COc3ccc(OC)cc3)o2)c1,"35.5 µM [rising, single point]",
COc1ccc(CCNC(=O)c2ccc3ccccc3n2)cc1OC,,"11.2 µM [falling, single point]"
O=C(N/N=C/c1cccc(Oc2ccccc2)c1)c1ccccc1Br,,"35.5 µM [rising, single point]"
c1cnc2ncc3sccc3c2c1,"14.1 µM [rising, single point]",
CSCc1cc(N(C)C)nc(SCc2ccc(Cl)c(Cl)c2)n1,"25.1 µM [rising, single point]","14.1 µM [rising, partial curve]"
C/C(=N/NS(=O)(=O)c1ccc(C)cc1)c1cccc(NC(=O)c2cccc(Cl)c2)c1,,"22.4 µM [falling, single point]"
O=C(NN=C1CCCCCC1)c1c[nH]c2ccccc12,"0.891 µM [rising, full curve, poor fit]",
COC(=O)c1ccc(C)c(NS(=O)(=O)c2ccc(OC)c(OC)c2)c1,,"5.62 µM [falling, single point]"
CCc1cc2c(=O)c(-c3ccc4c(c3)OCCO4)c(C)oc2cc1OS(C)(=O)=O,"12.6 µM [rising, partial curve, poor fit]",
Cc1ccc2nc(N3CC(=O)Nc4ccccc43)nc(-c3ccccc3)c2c1,"35.5 µM [rising, single point]",
CCOc1ccc2nc(NCCNC(=O)C(C)C)c(C)cc2c1,,"35.5 µM [rising, single point]"
Cc1nnc(SC(C(=O)Nc2cc(Cl)cc(Cl)c2)c2ccccc2)[nH]c1=O (configuration not stated),,"1.78 µM [falling, full curve, poor fit]"
Cc1ccc(-c2ccc(SCC(=O)Nc3ccc4c(c3)OCCO4)nn2)cc1,"25.1 µM [rising, single point]",
CNc1ccccc1C(C)(C)c1cc(-c2cccc(OC)c2)no1,"11.2 µM [rising, partial curve]",

# Retrieved by compound from the entries so far, 2 records:
Compound,AC50 [1],AC50 [2]
COC(=O)c1ccc(C)c(NS(=O)(=O)c2ccc(OC)c(OC)c2)c1,,"5.62 µM [falling, single point]"
COC(=O)c1ccc(OC)c(CSc2nnc(COc3ccc(OC)cc3)o2)c1,"35.5 µM [rising, single point]",

# Additional results:

Compound,AC50 [1],AC50 [2]
CC(=O)N1CCN=C1SCc1ccc(Br)cc1,"35.5 µM [rising, single point]",
CCOc1ccc2nc(SCC(=O)Nc3ccc4c(c3)OCCO4)[nH]c2c1,"35.5 µM [rising, single point]",
Cc1cc(C=NCCCO)c(C)n1-c1cc(Cl)ccc1Cl,"2.51 µM [falling, partial curve]",
Fc1ccc(N2CCN(Cc3nnc(-c4ccccc4)o3)CC2)cc1,"20 µM [rising, single point]",
CCOC(=O)/C(=C\c1cccc(O)c1)c1nc2sc(C)c(C)c2c(=O)[nH]1,"11.2 µM [rising, partial curve]",
CCn1cc(C(C)NC(=O)COc2ccc(Cl)cc2C)c(C)n1 (configuration not stated),"35.5 µM [rising, single point]",
O=C1C2C3C=CC(C3)C2C(=O)N1Cc1ccc(CN2C(=O)C3C4C=CC(C4)C3C2=O)cc1 (configuration not stated),"15.8 µM [rising, single point]",
Cc1nc2sc(C(=O)Nc3ccccc3Cc3ccccc3)c(C)c2c(=O)[nH]1,"3.55 µM [falling, partial curve]","3.16 µM [falling, partial curve]"
COc1ccc(-c2cc(OC(=O)c3ccc(F)cc3)c3c(C)oc(C)c3c(=O)c2)cc1,,"14.1 µM [falling, single point]"
O=C(NCCO)c1ccc(Oc2ccc(C(F)(F)F)cc2[N+](=O)[O-])cc1,,"5.62 µM [rising, single point]"
C=CCn1cnc2c(c1=O)c1nc3ccccc3nc1n2/N=C/c1cccc(OC)c1,"22.4 µM [falling, partial curve]","12.6 µM [falling, partial curve]"
COCCSc1ccccc1C(=O)Nc1ccccc1C#N,,"0.282 µM [rising, partial curve]"
CCCOc1ccccc1C1CC(=O)NC2=C1C(=O)CCC2 (configuration not stated),"12.6 µM [rising, single point]",
O=C(NCc1ccc(Cl)cc1)c1cc2c(nc3sccn32)s1,"10 µM [rising, partial curve, poor fit]",
N=c1c2c(-c3ccccc3)c(-c3ccccc3)n(Cc3ccco3)c2ncn1CCCN1CCOCC1,"12.6 µM [rising, partial curve]",
COCCCC/C(=N\OCCN)c1ccc(C(F)(F)F)cc1,"0.251 µM [falling, full curve]","501 nM [falling, full curve, poor fit] and 63.1 nM [rising, full curve, poor fit]"
CCN(CC)c1ccc(NC(=O)CN2C(=O)CSc3ncccc32)c(C)c1,"5.01 µM [rising, full curve]",
CCOc1cc(S(=O)(=O)NCCc2ccccc2C)c(OCC)cc1-n1cnnn1,"12.6 µM [rising, partial curve, poor fit]",

# Looked up above:
# Value for O=C(COC(=O)CC1c2ccccc2CCN1S(=O)(=O)c1ccc(F)cc1)Nc1ccccc1 (configuration not stated) under AC50 [2]: 6.31 µM [falling, single point]
# Value for C/C(=N/NS(=O)(=O)c1ccc(C)cc1)c1cccc(NC(=O)c2cccc(Cl)c2)c1 under AC50 [2]: 22.4 µM [falling, single point]
